Data on 3 molecules can be found in article PMC10858049.

In assay [1] the target is T1, GFP-UVR8^S402D, transiently expressed in Nicotiana benthamiana leaves (Arabidopsis) (UniProt Q9FN03).
T1 sequence: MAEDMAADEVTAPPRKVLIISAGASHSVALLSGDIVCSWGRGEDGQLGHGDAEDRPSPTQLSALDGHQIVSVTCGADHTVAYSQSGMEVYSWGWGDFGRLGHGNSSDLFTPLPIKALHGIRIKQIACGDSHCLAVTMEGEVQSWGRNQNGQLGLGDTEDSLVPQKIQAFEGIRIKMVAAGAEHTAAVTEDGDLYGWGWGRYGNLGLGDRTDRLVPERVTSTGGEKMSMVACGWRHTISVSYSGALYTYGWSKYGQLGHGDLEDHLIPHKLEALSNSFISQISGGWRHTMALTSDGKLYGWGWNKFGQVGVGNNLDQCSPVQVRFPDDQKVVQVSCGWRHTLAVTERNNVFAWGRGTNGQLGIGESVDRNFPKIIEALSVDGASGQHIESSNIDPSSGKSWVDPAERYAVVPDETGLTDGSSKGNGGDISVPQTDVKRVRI
As to the kind of experiment: co-IP; proteins transiently co-expressed in N. benthamiana leaves; with or without supplementary UV-B for 3 h; GFP-UVR8 forms immunoprecipitated, partners detected by western blot.

In assay [2] the target is T2, GFP-UVR8^S402A, expressed in Arabidopsis uvr8-1 plants (Arabidopsis) (UniProt Q9FN03).
T2 sequence: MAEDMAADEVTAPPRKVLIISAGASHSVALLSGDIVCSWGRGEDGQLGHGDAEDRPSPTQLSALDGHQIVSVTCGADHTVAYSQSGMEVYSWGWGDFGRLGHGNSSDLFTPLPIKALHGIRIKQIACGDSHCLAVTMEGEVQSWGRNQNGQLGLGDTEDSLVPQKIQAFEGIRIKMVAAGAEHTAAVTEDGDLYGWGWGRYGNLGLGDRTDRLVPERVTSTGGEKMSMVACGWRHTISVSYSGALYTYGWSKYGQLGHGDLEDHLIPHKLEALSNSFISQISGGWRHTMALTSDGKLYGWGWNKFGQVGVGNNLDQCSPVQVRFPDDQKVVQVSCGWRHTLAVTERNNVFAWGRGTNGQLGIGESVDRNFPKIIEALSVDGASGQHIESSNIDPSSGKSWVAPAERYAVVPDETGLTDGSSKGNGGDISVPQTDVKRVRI
As to the kind of experiment: co-IP; GFP-Trap immunoprecipitation of GFP-UVR8 forms from protein extracts of 14-day old uvr8-1 transgenic Arabidopsis plants; white light, with or without supplementary 3.0 µmol m^-2 s^-1 UV-B; co-precipitated endogenous COP1, RUP1 and RUP2 detected by western blot.

For assay [3], the target named is T3, GFP-UVR8 (UV … LOCUS 8 fused to GFP), expressed in Arabidopsis uvr8-1 plants (Arabidopsis) (UniProt Q9FN03).
T3 sequence: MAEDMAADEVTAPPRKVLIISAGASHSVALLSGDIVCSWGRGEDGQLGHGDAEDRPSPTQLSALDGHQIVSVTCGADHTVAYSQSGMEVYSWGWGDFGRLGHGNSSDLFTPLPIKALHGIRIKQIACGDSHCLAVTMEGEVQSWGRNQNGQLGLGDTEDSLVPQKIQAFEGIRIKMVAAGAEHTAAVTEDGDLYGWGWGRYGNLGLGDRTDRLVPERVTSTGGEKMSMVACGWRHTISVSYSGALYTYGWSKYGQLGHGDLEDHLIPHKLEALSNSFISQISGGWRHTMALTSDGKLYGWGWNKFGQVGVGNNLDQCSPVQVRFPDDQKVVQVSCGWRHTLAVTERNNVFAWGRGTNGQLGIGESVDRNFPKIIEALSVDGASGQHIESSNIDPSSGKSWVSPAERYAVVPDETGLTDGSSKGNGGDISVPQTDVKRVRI
The assay is described as above.

In assay [4] the target is T4, GFP-UVR8^S402D, expressed in Arabidopsis uvr8-1 plants (Arabidopsis) (UniProt Q9FN03).
T4 sequence: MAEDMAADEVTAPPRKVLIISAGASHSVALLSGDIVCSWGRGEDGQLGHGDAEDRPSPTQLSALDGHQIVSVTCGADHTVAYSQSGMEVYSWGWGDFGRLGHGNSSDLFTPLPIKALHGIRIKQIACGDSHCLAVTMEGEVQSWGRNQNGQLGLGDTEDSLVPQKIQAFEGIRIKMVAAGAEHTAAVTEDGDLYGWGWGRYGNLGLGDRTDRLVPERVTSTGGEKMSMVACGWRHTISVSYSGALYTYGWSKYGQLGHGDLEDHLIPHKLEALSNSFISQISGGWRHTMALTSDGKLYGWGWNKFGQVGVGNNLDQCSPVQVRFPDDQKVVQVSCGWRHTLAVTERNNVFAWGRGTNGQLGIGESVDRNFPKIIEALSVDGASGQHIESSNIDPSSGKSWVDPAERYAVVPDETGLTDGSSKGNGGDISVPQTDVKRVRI
The assay is described as above.

For assay [5], the target named is T5, GFP-UVR8^S402D, expressed in HEK293T cells (Arabidopsis) (UniProt Q9FN03).
T5 sequence: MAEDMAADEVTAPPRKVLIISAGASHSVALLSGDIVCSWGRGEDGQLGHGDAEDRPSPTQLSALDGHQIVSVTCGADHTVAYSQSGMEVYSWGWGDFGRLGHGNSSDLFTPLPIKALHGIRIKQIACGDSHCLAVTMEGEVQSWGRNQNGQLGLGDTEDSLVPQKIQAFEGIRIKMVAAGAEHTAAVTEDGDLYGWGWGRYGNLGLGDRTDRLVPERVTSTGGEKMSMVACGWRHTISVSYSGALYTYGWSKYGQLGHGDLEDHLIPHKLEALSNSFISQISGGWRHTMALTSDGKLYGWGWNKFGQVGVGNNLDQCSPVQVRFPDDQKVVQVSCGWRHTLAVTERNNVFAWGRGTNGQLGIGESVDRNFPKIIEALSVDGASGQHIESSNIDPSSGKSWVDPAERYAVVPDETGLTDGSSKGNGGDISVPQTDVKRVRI
In words: co-IP; HEK293T cells co-transfected with a GFP-UVR8 fusion and a HA-RUP/COP1 fusion; exposed or not to 0.1 µmol m^-2 s^-1 UV-B for 4 h; lysate (150 mM NaCl, 1% Triton X-100, 50 mM Tris HCl pH 8.0) incubated with GFP-Trap beads at 4 °C for 30 min.

These are yes or no findings as the source states them, for the method shown. In cells and extracts the contact can be indirect. Some binding calls cover weakened binding; strength is not graded here. Where a sequence is shown, tags or fusion partners need not be part of it.

B1: RUP2, transiently expressed in Nicotiana benthamiana leaves (protein, UniProt Q9FFA7 1-368)
chain: MNTLHPHKQQQEQAQQQEEARYEWDLSLSTVVSSSSSSASDVIGAIEFDPTDNIVATAGISRKIRFYGLPSLLRNNAVSGTGVSFVDQATACEYYICTPAKLSSLRWRPGSGGRVIGSGDYDGVVMEYDLEKRTPVFERDEHGGRRVWSVDYTRHGGASTVGASGSDDGTMQVWDPRCPPEESVGVVRPAGICRSAVCCVEFDPSGGPAVAVGCADRKGYVYDIRKLVDPALTLQGHTKTVSYVRFLDGGTVVTAGTDGCLKLWSVEDGRVIRTYEGHVNNRNFVGLSVWRNGALFGCGSENNRVFVYDRRWGKPVWVDGFEPVGMNSGSDKRFVSSVCWRQSGVDQCTLVAGGSDGVLQVYVGKRKP
Take B1: the binding result in assay [1] is recorded as “binds”.

B2: REPRESSOR OF UV-B PHOTOMORPHOGENESIS 2 (RUP2), endogenous in Arabidopsis plants (protein, UniProt Q9FFA7 1-368)
chain: MNTLHPHKQQQEQAQQQEEARYEWDLSLSTVVSSSSSSASDVIGAIEFDPTDNIVATAGISRKIRFYGLPSLLRNNAVSGTGVSFVDQATACEYYICTPAKLSSLRWRPGSGGRVIGSGDYDGVVMEYDLEKRTPVFERDEHGGRRVWSVDYTRHGGASTVGASGSDDGTMQVWDPRCPPEESVGVVRPAGICRSAVCCVEFDPSGGPAVAVGCADRKGYVYDIRKLVDPALTLQGHTKTVSYVRFLDGGTVVTAGTDGCLKLWSVEDGRVIRTYEGHVNNRNFVGLSVWRNGALFGCGSENNRVFVYDRRWGKPVWVDGFEPVGMNSGSDKRFVSSVCWRQSGVDQCTLVAGGSDGVLQVYVGKRKP
As for B2, the binding entry in assay [2], in assay [3] and in assay [4] was “binds” in each case.

B3: HA-RUP2, expressed in HEK293T cells (protein, UniProt Q9FFA7 1-368)
chain: MNTLHPHKQQQEQAQQQEEARYEWDLSLSTVVSSSSSSASDVIGAIEFDPTDNIVATAGISRKIRFYGLPSLLRNNAVSGTGVSFVDQATACEYYICTPAKLSSLRWRPGSGGRVIGSGDYDGVVMEYDLEKRTPVFERDEHGGRRVWSVDYTRHGGASTVGASGSDDGTMQVWDPRCPPEESVGVVRPAGICRSAVCCVEFDPSGGPAVAVGCADRKGYVYDIRKLVDPALTLQGHTKTVSYVRFLDGGTVVTAGTDGCLKLWSVEDGRVIRTYEGHVNNRNFVGLSVWRNGALFGCGSENNRVFVYDRRWGKPVWVDGFEPVGMNSGSDKRFVSSVCWRQSGVDQCTLVAGGSDGVLQVYVGKRKP
B3: the binding entry in assay [5] is recorded as “binds”.
